Results deposited as PubChem BioAssay AID1259331 (Drosophila RNAi Screening Center, 2017)

- Assay: 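Genes whose knock-down changes cell survival under toxic zinc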 (primary screen)
- System: Drosophila S2R+ cells
- Knock-down reagent: long dsRNA against Drosophila genes
- Timing: 5 days (4 days knock-down, then 1 day zinc)
- Conditions: zinc chloride at 15 mM final level for 1 day
- Detection: 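Total cellular ATP measured by luciferase luminescence as a viability proxy, turned into Z scores from three plate copies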
- Scale: mean Z score: higher = more ATP than other wells, better survival under zinc; ATP luminescence: higher = more ATP, more viable cells
- Call rule: 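a reagent is called a hit when its Z score is above 1.5 or below -1.5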
- Meaning of the calls: active = hit, ATP up or down; inactive = not a hit
In all, the deposit lists about 3,100 reagents; this is an unselected part. 126 of them (4.1%) count as active. 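Calls are per reagent; zinc was so toxic that few knock-downs lowered ATP further, so most hits raise ATP.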 Raw values vary from plate to plate and are shown uncorrected. Reagents against one gene are numbered here. No sequences are given here. Not given: the amount of reagent.

What is on record for CG10486 #1?
mean Z score: -0.0666; ATP luminescence, replicate 1: 73049; ATP luminescence, replicate 2: 59466; Call: inactive

With CG10486 #2, how do the results read?
mean Z score: -0.0208; ATP luminescence, replicate 1: 49692; ATP luminescence, replicate 2: 47943; Call: inactive

How did the screen score nan #1?
mean Z score: -0.26; ATP luminescence, replicate 1: 74421; ATP luminescence, replicate 2: 58197; Call: inactive

For nan #2, how do the results read?
mean Z score: 1.26; ATP luminescence, replicate 1: 86521; ATP luminescence, replicate 2: 78170; Call: inactive

What did the screen give for Zdhhc8 #1?
mean Z score: 2.41; ATP luminescence, replicate 1: 1.09e5; ATP luminescence, replicate 2: 1.03e5; Call: active

For Zdhhc8 #2, how do the results read?
mean Z score: 1.26; ATP luminescence, replicate 1: 76462; ATP luminescence, replicate 2: 62227; Call: inactive

With Ca-Ma2d, how do the results read?
mean Z score: 0.16; ATP luminescence, replicate 1: 50086; ATP luminescence, replicate 2: 52641; Call: inactive

With nSyb #1, how do the results read?
mean Z score: -0.379; ATP luminescence, replicate 1: 30267; ATP luminescence, replicate 2: 28769; Call: inactive

For nSyb #2, what does the deposit list?
mean Z score: -0.316; ATP luminescence, replicate 1: 59089; ATP luminescence, replicate 2: 50018; Call: inactive

Which result is listed for Ekar #1?
mean Z score: -0.394; ATP luminescence, replicate 1: 62330; ATP luminescence, replicate 2: 56654; Call: inactive

With Ekar #2, what was measured?
mean Z score: -0.632; ATP luminescence, replicate 1: 48303; ATP luminescence, replicate 2: 39113; Call: inactive

Which result is listed for Nemp #1?
mean Z score: 0.513; ATP luminescence, replicate 1: 52624; ATP luminescence, replicate 2: 53258; Call: inactive

Which result is listed for Nemp #2?
mean Z score: 0.71; ATP luminescence, replicate 1: 74849; ATP luminescence, replicate 2: 65142; Call: inactive

For CG12783, what was measured?
mean Z score: 0.0196; ATP luminescence, replicate 1: 44222; ATP luminescence, replicate 2: 55299; Call: inactive

What did the screen give for CG10073?
mean Z score: -0.0499; ATP luminescence, replicate 1: 64830; ATP luminescence, replicate 2: 64865; Call: inactive

Which result is listed for CG12121 #1?
mean Z score: 0.902; ATP luminescence, replicate 1: 84078; ATP luminescence, replicate 2: 77885; Call: inactive

For CG12121 #2, how do the results read?
mean Z score: 0.52; ATP luminescence, replicate 1: 74884; ATP luminescence, replicate 2: 63239; Call: inactive

Sorted by “mean Z score” (highest first): 2 of the entries above.
CG12121 #1 → mean Z score: 0.902; ATP luminescence, replicate 1: 84078; ATP luminescence, replicate 2: 77885; Call: inactive
CG12121 #2 → mean Z score: 0.52; ATP luminescence, replicate 1: 74884; ATP luminescence, replicate 2: 63239; Call: inactive
